For assay [1], the target named is T1, GST-cNM2A (1711–1960) (canis (dog)) (UniProt Q258K2).
T1 sequence: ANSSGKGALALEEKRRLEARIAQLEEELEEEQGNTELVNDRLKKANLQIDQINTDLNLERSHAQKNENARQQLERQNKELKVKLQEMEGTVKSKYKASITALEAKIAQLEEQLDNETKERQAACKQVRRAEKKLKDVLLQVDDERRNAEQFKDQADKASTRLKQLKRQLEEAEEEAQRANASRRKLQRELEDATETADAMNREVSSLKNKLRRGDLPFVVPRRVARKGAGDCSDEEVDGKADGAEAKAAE
The assay can be described thus: pull-down; GST-tagged C-terminal (last 250 residues, rod+tail) fragments of NM2s as baits; GFP-tagged full-length or C-terminally truncated CGN or CGNL1 in HEK lysates as preys; IB with anti-GFP (Fig. S1 E–G, J–O); only the target purified.

Chains of the proteins cited; added tags and fusions are not shown. Lines headed by an entry give the natural chain unless they say otherwise; changes in a name come on top.
UniProt P35580: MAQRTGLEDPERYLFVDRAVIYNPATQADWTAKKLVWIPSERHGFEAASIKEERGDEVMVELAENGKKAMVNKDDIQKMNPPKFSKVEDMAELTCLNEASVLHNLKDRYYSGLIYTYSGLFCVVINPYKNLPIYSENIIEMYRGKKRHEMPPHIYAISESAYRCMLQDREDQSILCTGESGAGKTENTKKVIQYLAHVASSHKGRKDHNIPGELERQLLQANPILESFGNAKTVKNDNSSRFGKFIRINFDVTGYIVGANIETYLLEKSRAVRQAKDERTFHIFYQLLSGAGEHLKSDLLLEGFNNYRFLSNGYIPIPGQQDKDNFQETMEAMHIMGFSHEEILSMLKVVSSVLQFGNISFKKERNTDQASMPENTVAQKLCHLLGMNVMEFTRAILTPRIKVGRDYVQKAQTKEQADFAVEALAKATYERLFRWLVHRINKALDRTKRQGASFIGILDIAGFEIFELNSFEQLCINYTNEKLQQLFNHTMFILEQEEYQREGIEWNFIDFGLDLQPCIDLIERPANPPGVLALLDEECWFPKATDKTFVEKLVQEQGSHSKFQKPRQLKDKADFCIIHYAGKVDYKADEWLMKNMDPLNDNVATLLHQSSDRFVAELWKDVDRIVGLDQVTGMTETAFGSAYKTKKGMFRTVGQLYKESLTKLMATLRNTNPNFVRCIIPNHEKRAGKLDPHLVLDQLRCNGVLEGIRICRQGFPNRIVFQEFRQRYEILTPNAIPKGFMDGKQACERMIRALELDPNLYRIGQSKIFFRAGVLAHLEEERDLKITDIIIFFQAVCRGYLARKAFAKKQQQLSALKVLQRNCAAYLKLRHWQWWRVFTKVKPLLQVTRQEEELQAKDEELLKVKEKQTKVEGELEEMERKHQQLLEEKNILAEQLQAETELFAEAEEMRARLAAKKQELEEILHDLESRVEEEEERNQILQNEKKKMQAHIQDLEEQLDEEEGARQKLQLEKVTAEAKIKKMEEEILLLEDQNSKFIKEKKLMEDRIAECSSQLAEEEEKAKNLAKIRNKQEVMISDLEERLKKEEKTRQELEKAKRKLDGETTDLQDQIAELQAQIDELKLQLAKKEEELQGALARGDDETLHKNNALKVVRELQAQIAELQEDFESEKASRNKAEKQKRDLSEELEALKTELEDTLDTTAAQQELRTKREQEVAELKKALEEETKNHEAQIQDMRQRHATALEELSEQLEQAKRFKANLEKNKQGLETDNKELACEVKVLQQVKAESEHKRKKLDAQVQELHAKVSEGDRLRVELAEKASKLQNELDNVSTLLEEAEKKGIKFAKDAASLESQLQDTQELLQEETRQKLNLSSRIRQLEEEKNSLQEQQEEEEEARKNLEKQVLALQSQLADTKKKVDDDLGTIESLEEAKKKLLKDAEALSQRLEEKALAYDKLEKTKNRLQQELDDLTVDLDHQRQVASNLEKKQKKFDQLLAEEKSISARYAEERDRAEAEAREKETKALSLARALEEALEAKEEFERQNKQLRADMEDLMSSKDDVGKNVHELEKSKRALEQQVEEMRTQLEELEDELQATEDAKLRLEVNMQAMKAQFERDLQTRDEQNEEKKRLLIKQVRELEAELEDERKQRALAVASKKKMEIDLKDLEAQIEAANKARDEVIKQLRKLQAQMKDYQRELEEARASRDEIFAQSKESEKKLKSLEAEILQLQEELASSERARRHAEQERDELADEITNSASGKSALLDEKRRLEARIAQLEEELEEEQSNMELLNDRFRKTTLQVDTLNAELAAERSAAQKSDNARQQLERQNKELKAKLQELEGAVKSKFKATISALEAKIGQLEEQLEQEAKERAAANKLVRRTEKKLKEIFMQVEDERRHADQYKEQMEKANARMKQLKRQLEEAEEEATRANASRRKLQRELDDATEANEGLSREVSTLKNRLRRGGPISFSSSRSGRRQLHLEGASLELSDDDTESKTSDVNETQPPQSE

Assay [2] addresses T2, GST-CGN (1015–1203) (UniProt Q9P2M7).
T2 sequence: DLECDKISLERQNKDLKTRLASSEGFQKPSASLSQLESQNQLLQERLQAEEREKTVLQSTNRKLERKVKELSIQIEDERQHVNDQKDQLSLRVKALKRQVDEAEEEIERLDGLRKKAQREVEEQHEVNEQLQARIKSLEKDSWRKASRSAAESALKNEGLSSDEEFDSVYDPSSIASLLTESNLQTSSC
The assay can be described thus: pull-down; GST-fusion fragments of CGN or CGNL1 as baits; NM2 rod fragments purified from bacteria as preys; IB with anti-NM2 antibodies (Fig. S1 C, D); both purified.

Assay [3] has as its target T3, GST-hCGNL1 (1105–1302) (human) (UniProt Q0VF96).
T3 sequence: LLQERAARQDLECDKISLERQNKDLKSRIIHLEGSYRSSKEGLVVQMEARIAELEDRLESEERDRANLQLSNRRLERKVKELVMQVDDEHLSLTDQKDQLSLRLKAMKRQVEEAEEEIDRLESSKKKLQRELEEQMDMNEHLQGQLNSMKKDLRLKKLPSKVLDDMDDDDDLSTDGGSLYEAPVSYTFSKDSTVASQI
Described as above.

Assay [4] deals with T4, GST-hCGNL1 (421–603) (human) (UniProt Q0VF96).
T4 sequence: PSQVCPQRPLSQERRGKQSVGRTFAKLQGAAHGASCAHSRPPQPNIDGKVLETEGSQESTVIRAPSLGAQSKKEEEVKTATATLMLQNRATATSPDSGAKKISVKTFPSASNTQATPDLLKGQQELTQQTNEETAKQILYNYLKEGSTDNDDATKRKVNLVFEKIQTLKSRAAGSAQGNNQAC
Described as above.

The target in assay [5] is T5, GST-CGN (1–226) (UniProt Q9P2M7).
T5 sequence: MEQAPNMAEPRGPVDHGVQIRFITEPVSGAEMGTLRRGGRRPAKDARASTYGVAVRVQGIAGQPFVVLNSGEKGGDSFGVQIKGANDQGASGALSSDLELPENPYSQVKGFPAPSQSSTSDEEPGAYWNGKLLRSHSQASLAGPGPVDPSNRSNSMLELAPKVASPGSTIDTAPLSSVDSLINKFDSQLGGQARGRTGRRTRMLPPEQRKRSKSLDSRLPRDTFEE
The assay is described as above.

In assay [6] the target is hNM2B rod (1337–1976), purified (human) (UniProt P35580). Nature of the assay: co-sedimentation; filament pelleting assay: NM2B Rod, CGN Rod2 or both at 5 μM, dialysed overnight against 10 mM sodium phosphate, 150 mM NaCl, 2 MgCl2; 45,000 rpm 1 h 4°C; supernatant and pellet by SDS-PAGE; both purified.
Assay [7] concerns the target GST-cNM2B (1507–2006) (canis (dog)). Nature of the assay: pull-down; affinity purified GST-tagged cNM2A, cNM2B, cNM2C rod fragments as baits; His-tagged full-length CGN and CGNL1 purified from baculovirus-infected insect cells as preys; IB with anti-His (Fig. 1 H–J); both purified.
Assay [8] concerns the target GST-cNM2B (1757–2006) (canis (dog)). The description is as above.
Assay [9] addresses GST-cNM2B (1906–2006) (canis (dog)). The assay is described as above.
The target of assay [10] is GST-cNM2C (1566–2065) (canis (dog)). The description is as above.
The target in assay [11] is GST-cNM2C (1816–2065) (canis (dog)). Described as above.

No constants are given. Whether binding was seen depends on the method and setting. For some assays here: Binding calls can cover weak binding; strength is not graded here. Tags and fused reporters may be left off the sequences shown. For some assays here: In cells and extracts the contact can be indirect.

In the case of “GFP-cCGN-myc-Δ1003-1190 (1–1,002aa) (canis (dog)) (domain or fragment)”, the binding entry in [1] is “binds weakly”.

Turning to “GFP-cCGNL1-myc-Δ878-1295 (1–877aa) (canis (dog)) (domain or fragment)”, the binding entry in assay [1] is reported as “binds”.

Consider “hNM2A rod (1330–1960), purified (from UniProt P35579) (domain or fragment)”, for which the values for the binding result in assay [2], in assay [3] and in assay [4] were “no binding”, “binds” and “no binding”, respectively.

Take “hNM2B rod (1337–1976), purified (from UniProt P35580) (domain or fragment)”: the binding entry in assay [2] was “binds”; in assay [5], “no binding”; in assay [3], “binds”; in assay [4], “no binding”.

B1: His-tagged hCGN Rod2 (667–1203), purified (domain or fragment, UniProt Q9P2M7 667-1203)
chain: AVLRVEADRGRELEEQNLQLQKTLQQLRQDCEEASKAKMVAEAEATVLGQRRAAVETTLRETQEENDEFRRRILGLEQQLKETRGLVDGGEAVEARLRDKLQRLEAEKQQLEEALNASQEEEGSLAAAKRALEARLEEAQRGLARLGQEQQTLNRALEEEGKQREVLRRGKAELEEQKRLLDRTVDRLNKELEKIGEDSKQALQQLQAQLEDYKEKARREVADAQRQAKDWASEAEKTSGGLSRLQDEIQRLRQALQASQAERDTARLDKELLAQRLQGLEQEAENKKRSQDDRARQLKGLEEKVSRLETELDEEKNTVELLTDRVNRGRDQVDQLRTELMQERSARQDLECDKISLERQNKDLKTRLASSEGFQKPSASLSQLESQNQLLQERLQAEEREKTVLQSTNRKLERKVKELSIQIEDERQHVNDQKDQLSLRVKALKRQVDEAEEEIERLDGLRKKAQREVEEQHEVNEQLQARIKSLEKDSWRKASRSAAESALKNEGLSSDEEFDSVYDPSSIASLLTESNLQTSSC
With B1, the binding result in [6] was “binds”.

B2: full-length hCGN (CGN-FL-10xHis-2xStrep), purified (protein, UniProt Q9P2M7 1-1203)
chain: MEQAPNMAEPRGPVDHGVQIRFITEPVSGAEMGTLRRGGRRPAKDARASTYGVAVRVQGIAGQPFVVLNSGEKGGDSFGVQIKGANDQGASGALSSDLELPENPYSQVKGFPAPSQSSTSDEEPGAYWNGKLLRSHSQASLAGPGPVDPSNRSNSMLELAPKVASPGSTIDTAPLSSVDSLINKFDSQLGGQARGRTGRRTRMLPPEQRKRSKSLDSRLPRDTFEERERQSTNHWTSSTKYDNHVGTSKQPAQSQNLSPLSGFSRSRQTQDWVLQSFEEPRRSAQDPTMLQFKSTPDLLRDQQEAAPPGSVDHMKATIYGILREGSSESETSVRRKVSLVLEKMQPLVMVSSGSTKAVAGQGELTRKVEELQRKLDEEVKKRQKLEPSQVGLERQLEEKTEECSRLQELLERRKGEAQQSNKELQNMKRLLDQGEDLRHGLETQVMELQNKLKHVQGPEPAKEVLLKDLLETRELLEEVLEGKQRVEEQLRLRERELTALKGALKEEVASRDQEVEHVRQQYQRDTEQLRRSMQDATQDHAVLEAERQKMSALVRGLQRELEETSEETGHWQSMFQKNKEDLRATKQELLQLRMEKEEMEEELGEKIEVLQRELEQARASAGDTRQVEVLKKELLRTQEELKELQAERQSQEVAGRHRDRELEKQLAVLRVEADRGRELEEQNLQLQKTLQQLRQDCEEASKAKMVAEAEATVLGQRRAAVETTLRETQEENDEFRRRILGLEQQLKETRGLVDGGEAVEARLRDKLQRLEAEKQQLEEALNASQEEEGSLAAAKRALEARLEEAQRGLARLGQEQQTLNRALEEEGKQREVLRRGKAELEEQKRLLDRTVDRLNKELEKIGEDSKQALQQLQAQLEDYKEKARREVADAQRQAKDWASEAEKTSGGLSRLQDEIQRLRQALQASQAERDTARLDKELLAQRLQGLEQEAENKKRSQDDRARQLKGLEEKVSRLETELDEEKNTVELLTDRVNRGRDQVDQLRTELMQERSARQDLECDKISLERQNKDLKTRLASSEGFQKPSASLSQLESQNQLLQERLQAEEREKTVLQSTNRKLERKVKELSIQIEDERQHVNDQKDQLSLRVKALKRQVDEAEEEIERLDGLRKKAQREVEEQHEVNEQLQARIKSLEKDSWRKASRSAAESALKNEGLSSDEEFDSVYDPSSIASLLTESNLQTSSC
Regarding B2, the binding entry in assay [7] is “binds”; in assay [8] it was “binds”; in assay [9], “no binding”; in [10] it was “binds weakly”; in assay [11], “binds weakly”.

B3: full-length hCGNL1 (10xHis-2xStrep), purified (protein, UniProt Q0VF96 1-1302)
chain: MELYFGEYQHVQQEYGVHLRLASDDTQKSRSSQNSKAGSYGVSIRVQGIDGHPYIVLNNTERCLAGTSFSENGPPFPPPVINNLPLHSSNGSVPKENSEELQLPENPYAQPSPIRNLKQPLLHEGKNGVLDRKDGSVKPSHLLNFQRHPELLQPYDPEKNELNLQNHQPSESNWLKTLTEEGINNKKPWTCFPKPSNSQPTSPSLEDPAKSGVTAIRLCSSVVIEDPKKQTSVCVNVQSCTKERVGEEALFTSGRPLTAHSPHAHPETKKTRPDVLPFRRQDSAGPVLDGARSRRSSSSSTTPTSANSLYRFLLDDQECAIHADNVNRHENRRYIPFLPGTGRDIDTGSIPGVDQLIEKFDQKPGLQRRGRSGKRNRINTDDRKRSRSVDSAFPFGLQGNSEYLIEFSRNLGKSSEHLLRPSQVCPQRPLSQERRGKQSVGRTFAKLQGAAHGASCAHSRPPQPNIDGKVLETEGSQESTVIRAPSLGAQSKKEEEVKTATATLMLQNRATATSPDSGAKKISVKTFPSASNTQATPDLLKGQQELTQQTNEETAKQILYNYLKEGSTDNDDATKRKVNLVFEKIQTLKSRAAGSAQGNNQACNSTSEVKDLLEQKSKLTIEVAELQRQLQLEVKNQQNIKEERERMRANLEELRSQHNEKVEENSTLQQRLEESEGELRKNLEELFQVKMEREQHQTEIRDLQDQLSEMHDELDSAKRSEDREKGALIEELLQAKQDLQDLLIAKEEQEDLLRKRERELTALKGALKEEVSSHDQEMDKLKEQYDAELQALRESVEEATKNVEVLASRSNTSEQDQAGTEMRVKLLQEENEKLQGRSEELERRVAQLQRQIEDLKGDEAKAKETLKKYEGEIRQLEEALVHARKEEKEAVSARRALENELEAAQGNLSQTTQEQKQLSEKLKEESEQKEQLRRLKNEMENERWHLGKTIEKLQKEMADIVEASRTSTLELQNQLDEYKEKNRRELAEMQRQLKEKTLEAEKSRLTAMKMQDEMRLMEEELRDYQRAQDEALTKRQLLEQTLKDLEYELEAKSHLKDDRSRLVKQMEDKVSQLEMELEEERNNSDLLSERISRSREQMEQLRNELLQERAARQDLECDKISLERQNKDLKSRIIHLEGSYRSSKEGLVVQMEARIAELEDRLESEERDRANLQLSNRRLERKVKELVMQVDDEHLSLTDQKDQLSLRLKAMKRQVEEAEEEIDRLESSKKKLQRELEEQMDMNEHLQGQLNSMKKDLRLKKLPSKVLDDMDDDDDLSTDGGSLYEAPVSYTFSKDSTVASQI
Consider B3, for which the binding entry in assay [7] is “binds”; in [8], “binds”; in assay [9], “no binding”; in assay [10] it was “binds weakly”; in [11], “binds weakly”.

Source of the values: article PMC10202830, “Cingulin and paracingulin tether myosins-2 to junctions to mechanoregulate the plasma membrane” (The Journal of Cell Biology, 2023).
